Reference: PubChem BioAssay AID540276 (National Center for Advancing Translational Sciences (NCATS), 2011)
Where “and” joins values, the source holds several entries; their conditions need not be identical. Equal entries are not always repeated. The campaign covered roughly 300,000 compounds. About 5,400 (1.8%) were called active. The inconclusive results got no clear call from the source; some entries with a clear call stand among them for comparison. The call rests on the fitted dose curve; tested in HEK293 cells. A potency beside an inconclusive call is a rough fit, not a confirmed value. Where a structure was tested more than once in an assay, its records may differ in their call.

Test: qHTS for inhibitors of binding or entry into cells for Marburg Virus
Settings: Marburg virus pseudotyped entry inhibition, cell reporter; series mostly up to 37.8 µM
Potency means the concentration at half of the fitted maximal effect.

Row | Compound | Potency
1 | COc1cccc(OCc2cc(C(=O)N(C)C3CCOCC3)no2)c1 | inactive
2 | Cc1cc(C)cc(N2C(=O)NC(=O)/C(=C\c3cccn3-c3ccccc3)C2=O)c1 | inconclusive: 15.8 µM [inhibitor, single point]
3 | Clc1ccc(-c2nc(N3CCCCC3)nc3ccccc23)cc1 | inconclusive: 20 µM [inhibitor, single point]
4 | c1ccc(Cc2nnc(-c3ccccc3)o2)cc1 | inconclusive: 1.46 µM [inhibitor, partial curve, poor fit]
5 | CC(C)N1CCC(=NNC(=O)c2cccs2)CC1 | inconclusive: 6.31 µM [activator, single point]
6 | CCCOC(=O)c1c(N)sc(C(=O)OCC)c1C | inactive
7 | CN(Cc1nccn1C)C(=O)CC1C(=O)NCCN1Cc1ccc(F)cc1Cl (centres undefined) | inactive
8 | O=C(Nc1cccnc1Oc1ccc(Cl)cc1)c1cccc2ccccc12 | inconclusive: 12.6 µM [inhibitor, partial curve, poor fit]
9 | O=[N+]([O-])c1cnn(-c2nc(-c3ccccc3)cc(C(F)(F)F)n2)c1 | inconclusive: 1.12 µM [inhibitor, full curve, poor fit]
10 | O=C(N/N=C1\CCc2ccccc21)c1ccncc1 | inactive
11 | CCCN(C(=O)c1coc(=O)c2ccccc12)c1ccccc1C | inconclusive: 17.8 µM [inhibitor, single point]
12 | Cc1ccc(CCNC(=O)C2CCN(Cc3nc(-c4ccccc4C)oc3C)CC2)cc1 | inactive
13 | O=C(c1ccco1)N1CCN(C(=O)c2ccc(COc3ccc(Cl)cc3Cl)o2)CC1 | inconclusive: 20.6 µM [inhibitor, partial curve]
14 | CC(=O)c1cccc(NC(=S)NC(=O)c2cccc(C)c2)c1 | inconclusive: 3.16 µM [activator, single point]
15 | CC1C(c2ccccc2)N(C)C(c2ccccc2)CC1(O)c1ccccc1 (centres undefined) | inconclusive: 0.73 µM [inhibitor, partial curve, poor fit]
16 | CCOc1cccc(=O)c2c(C)n(CC3CCCO3)c(C)c12 (centres undefined) | inconclusive: 0.0326 µM [inhibitor, full curve, poor fit]
17 | Cc1cc(C)c2cc(CN(CCO)Cc3nnnn3Cc3ccc(F)cc3)c(=O)[nH]c2c1 | inactive
18 | COc1ccc(NC(=S)NC(=O)c2ccc3c(c2)OCCO3)cc1 | inconclusive: 35.5 µM [activator, single point]
19 | CCc1ccc(NC(=O)C(C)OC(=O)CC(NC(C)=O)c2ccccc2)cc1 (centres undefined) | inactive
20 | Cc1ccc(Cl)cc1NC(=O)C(Cc1ccccc1)N1C(=O)C2C3CCC(C3)C2C1=O (centres undefined) | inconclusive: 11.2 µM [inhibitor, partial curve, poor fit]
21 | COc1ccc(C2=NN(C(=O)CSc3ncccn3)C(c3ccc(C)cc3)C2)cc1 (centres undefined) | inconclusive: 28.2 µM [inhibitor, single point]
22 | CCCCNC(=O)C1=C(N)C(C(=O)Nc2ccc(C)c(S(=O)(=O)N3CCCCC3)c2)SC1=Nc1ccc(C)cc1C (centres undefined) | active: 12.6 µM
23 | COc1ccc(/C=N/OCC(=O)NCc2cccs2)c(OC)c1 | inconclusive: 6.31 µM [activator, single point]

Row | Compound | Potency
24 | CC(C)(C)NC(=O)CCN(/N=C/c1ccccc1F)C1=NS(=O)(=O)c2ccccc21 | inconclusive: 1.12 µM [inhibitor, partial curve, poor fit]
25 | Cc1sc(NC(=O)C(C)C)c(C(=O)Nc2ccccc2)c1C | inconclusive: 8.2 µM [inhibitor, partial curve, poor fit]
26 | CCCn1c(SCC(=O)N2CCCc3ccccc32)nnc1-c1ccco1 | inactive
27 | COc1ccc2[nH]c(=O)c(CN(Cc3cccs3)Cc3nnnn3C(C)(C)C)cc2c1 | inactive and active: 18.3 µM
28 | CC(NC(=O)Cc1cccs1)C(c1cccs1)N1CCOCC1 (centres undefined) | inactive
29 | Cc1ccccc1-c1noc(CCC(=O)NCc2ccco2)n1 | inactive
30 | O=C(N1CCCC1)C12CCC3CC(CC(C3)C1)C2 | inactive
31 | O=C(CSc1nc(C2CC2)nc2ccccc12)N1CCc2ccccc2C1 | inactive
32 | CCOc1ccc(C(=O)NC2CCCCCCC2)cc1 | inconclusive: 35.5 µM [inhibitor, single point]
33 | CCc1c(C)nc2cc(-c3ccc(OC)c(OC)c3)nn2c1NCC1CC1 | inconclusive: 15.8 µM [inhibitor, partial curve, poor fit]
34 | O=C(NC1CC1)C(Cc1ccccc1)NS(=O)(=O)c1ccccc1F (centres undefined) | inconclusive: 6.31 µM [activator, single point]
35 | COc1ccc(NS(=O)(=O)c2cc(NC(=O)/C=C/c3cc(OC)ccc3OC)ccc2N2CCCCC2)cc1 | inconclusive: 0.282 µM [inhibitor, single point]
36 | COC(=O)c1cccc(Nc2nc(-c3cccnc3)nc3ccccc23)c1 | inconclusive: 7.94 µM [inhibitor, partial curve, poor fit]
37 | Fc1ccc(CNc2nc(-c3ccccc3)nc3ccccc23)cc1 | inconclusive: 35.5 µM [inhibitor, single point]
38 | O=C(COc1ccc([N+](=O)[O-])cc1)Nc1ccc2[nH]c(=O)[nH]c2c1 | inactive
39 | O=C(CNc1ccccc1)N/N=C/c1ccc([N+](=O)[O-])o1 | active: 18.3 µM
40 | COc1cc(/C=C(\C#N)c2nc3ccccc3o2)ccc1O | inactive
41 | CC(C)CNC(=O)Cn1c(=O)c2c(ncn2CC(C)C)n(Cc2ccccc2)c1=O | inactive
42 | Cc1onc(-c2ccc(Cl)cc2)c1-c1ccnc(SCC(=O)Nc2cc(Cl)cc(Cl)c2)n1 | active: 7.94 µM
43 | O=C(CCc1ccccc1)C(=O)N1CCCC(C(=O)c2cccc(Cl)c2)C1 (centres undefined) | inactive
44 | C#CCn1c(=NC(=O)c2cc(Cl)sc2Cl)sc2cc(S(N)(=O)=O)ccc21 | inconclusive: 11.2 µM [activator, partial curve, poor fit]
45 | Cc1ccccc1OCc1nnc(SCC(=O)Nc2ccc3c(c2)OCO3)n1C | inactive
46 | CSCCC(NC(=O)c1ccccc1)C(=O)Nc1ccncc1 (centres undefined) | inconclusive: 8.91 µM [inhibitor, partial curve]

Row | Compound | Potency
47 | CCOc1cccc2c1OC(c1cc(OC)c(OC)c(OC)c1)N1N=C(c3ccc(C)o3)CC21 (centres undefined) | inconclusive: 25.1 µM [inhibitor, single point]
48 | O=C(Nc1ccc(F)cc1)c1sc(Cl)nc1-c1ccccc1 | inactive
49 | Cc1ccc2nc(C)cc(Nc3ccc([N+](=O)[O-])cc3)c2c1 | inconclusive: 3.16 µM [inhibitor, single point]
50 | CCOc1ccc(C(=O)c2cn(CC(=O)Nc3ccc(Cl)cc3)c3cc4c(cc3c2=O)OCCO4)cc1 | inactive
51 | COc1ccc(C(=O)OCCc2ccc(O)cc2)cc1 | inconclusive: 6.51 µM [activator, single point]
52 | N/C(=N\OC(=O)Cc1ccccc1)c1ccc(Br)cc1 | inconclusive: 4.11 µM [activator, partial curve]
53 | O=C(O)Cn1c(=O)c2c3c(sc2n(Cc2ccc(Cl)cc2Cl)c1=O)CCCC3 | inconclusive: 6.31 µM [inhibitor, single point]
54 | Cc1ccc2nc(-c3ccccc3)cn2c1 | active: 0.447 µM
55 | COc1ccc(C(=O)C2CCCN(C(=O)c3cccnc3SC)C2)c(C)c1 (centres undefined) | inconclusive: 7.08 µM [inhibitor, partial curve, poor fit]
56 | CCN(CC)S(=O)(=O)c1ccc(N2CCCC2)c(C(=O)OCC(=O)N2CCCC2)c1 | inconclusive: 3.98 µM [inhibitor, single point]
57 | O=C(c1ccc(Cl)cc1)C1CCCN(Cc2cccn2-c2ccccn2)C1 (centres undefined) | active: 3.98 µM
58 | COC(=O)CSC1=C(C#N)C(c2ccccc2OC)C(C(=O)OC)C(=O)N1 (centres undefined) | inconclusive: 5.01 µM [inhibitor, full curve, poor fit]
59 | O=C(Cn1nc(-c2cccc(Cl)c2)ccc1=O)Nc1ccccc1Br | inconclusive: 3.16 µM [activator, full curve, poor fit]
60 | NC(=NCc1ccccc1)C(N=Nc1ccccc1)C(=O)NCc1ccccc1 (centres undefined) | inconclusive: 11.2 µM [inhibitor, single point]
61 | Cc1ccc(C)c(SCC(=O)NCC(c2ccco2)N2CCCCC2)c1 (centres undefined) | active: 12.6 µM
62 | CC(C)c1ccc(Nc2c([N+](=O)[O-])c(=O)n(C)c3ccccc23)cc1 | inconclusive: 35.5 µM [inhibitor, single point]
63 | Cc1ccc(Cl)cc1N1CCN(C(CC(C)C)c2nnnn2CC2CCCO2)CC1 (centres undefined) | inactive
64 | CCCCOC(=O)c1ccc(NC(=O)c2nn(C)cc2Br)cc1 | inactive
65 | COc1ccccc1C(=O)NC(=O)COC(=O)CCOc1ccccc1C | inconclusive: 1.12 µM [activator, full curve, poor fit]
66 | COC(=O)c1ccc(NC(=O)Cn2nnc3ccccc32)cc1 | inconclusive: 0.282 µM [activator, partial curve, poor fit]
67 | C=CCN=c1scc(-c2ccc3c(c2)NC(=O)CO3)n1/N=C(\C)c1ccccn1 | inconclusive: 3.55 µM [inhibitor, partial curve, poor fit]
68 | CC1(OC(=O)C2CCCC2)C(=O)C=C2C=C(c3ccsc3)N(CCCCO)C=C2C1=O (centres undefined) | inconclusive: 0.376 µM [activator, partial curve, poor fit]
69 | COc1ccc(C(=O)Cn2c(=O)c(-c3cc(C)ccc3NC(C)=O)nc3ccccc32)cc1 | inconclusive: 12.6 µM [activator, partial curve, poor fit]

Of the compounds above, these have a cyano group.
Row | Compound | Potency
40 | COc1cc(/C=C(\C#N)c2nc3ccccc3o2)ccc1O | inactive
58 | COC(=O)CSC1=C(C#N)C(c2ccccc2OC)C(C(=O)OC)C(=O)N1 (centres undefined) | inconclusive: 5.01 µM [inhibitor, full curve, poor fit]
